Data published in PMC7819943, “Rice protein-binding microarrays: a tool to detect cis-acting elements near promoter regions in rice”.
The list shows a part of the results.

These sequences were tested against T1, OsSMF1 (Oryza sativa, UniProt Q6ZLB0 1-436) (assay: protein-binding microarray (RPBM); PBS, 2% BSA, 51.3 ng/ul salmon testes DNA, 50 uM zinc acetate, 200 nM TF, 25 C, 1 h; high values mean tight binding). Details: protein: recombinant; tags: N-terminal polyhistidine and DsRed monomer fusion (pET32a); chain copies: 2; label: CyDye5-dUTP incorporated in the synthesized complementary strand; 3' TTTTT single-stranded linker to array surface; dsDNA, one strand shown.
T1 sequence: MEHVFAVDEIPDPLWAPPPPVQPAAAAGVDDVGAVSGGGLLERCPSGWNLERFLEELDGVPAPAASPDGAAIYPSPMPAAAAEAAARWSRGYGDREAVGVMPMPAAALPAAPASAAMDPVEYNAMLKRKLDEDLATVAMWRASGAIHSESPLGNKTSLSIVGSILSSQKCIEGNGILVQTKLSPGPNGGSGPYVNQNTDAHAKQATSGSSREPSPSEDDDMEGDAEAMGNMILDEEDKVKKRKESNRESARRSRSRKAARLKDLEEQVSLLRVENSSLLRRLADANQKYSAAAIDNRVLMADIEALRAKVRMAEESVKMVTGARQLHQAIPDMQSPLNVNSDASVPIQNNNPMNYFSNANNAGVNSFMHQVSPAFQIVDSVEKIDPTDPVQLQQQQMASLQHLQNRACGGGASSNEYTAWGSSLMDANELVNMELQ
How it was run: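 Using Ni–NTA, transcription factors fused N-terminally to polyhistidine and DsRed were purified after expression in E. coli BL21-CodonPlus. These were incubated at 200 nM with a blocked, double-stranded custom Agilent array for 1 h at 25 °C in a buffer containing 50 µM zinc acetate, and the array was washed. The binding signal is per-feature fluorescence intensity (arbitrary units) on an Axon 4000B scanner.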

Point of comparison: “GCAAGCAACTAAGCAAGACGACACGGTCTCTGTCCTACCACGGAGTCACCTAGTGCAG”, binding signal 3990 fluorescence intensity (a.u.). Against it:
- CGCCATCGCCTACTAAGCTAGCGTGTATGCTTCCAACAACCGGAGTCACCTAGTGCAG — lower, 3880 fluorescence intensity (a.u.)
- TATGGAGTTTACTATTCTCCTGATTATTACAAAATTTATACGGAGTCACCTAGTGCAG — higher, 30000 fluorescence intensity (a.u.)
- CTCCATGGGCCCGTACTCGTGCCACGTGTCAATCCTGTGGCGGAGTCACCTAGTGCAG — higher, 12400 fluorescence intensity (a.u.)
- AACGCCATGTTTTACGTTTTCCCGCGACTTTGTTGGCGCGCGGAGTCACCTAGTGCAG — higher, 13300 fluorescence intensity (a.u.)
- GAGATCGGCCGTATACTAGAGCTGATGTGTTTAAGGTCGTCGGAGTCACCTAGTGCAG — lower, 3180 fluorescence intensity (a.u.)
- ATTCCTATACCATGTGTATGCGTGTGTGATATGGACACTCCGGAGTCACCTAGTGCAG — lower, 3190 fluorescence intensity (a.u.)
- TTTCTTTGGTTCAGCTGAACCATTATTTGTTGTTTTACTTCGGAGTCACCTAGTGCAG — higher, 40700 fluorescence intensity (a.u.)
- TCCAGCCCCAGCTCTGGCTGACAAGGATTAACCCCAGATACGGAGTCACCTAGTGCAG — higher, 5390 fluorescence intensity (a.u.)
- CGCTGCACGCCAGGCGCACCGGCTGGTACGTGTACGTCCCCGGAGTCACCTAGTGCAG — lower, 3420 fluorescence intensity (a.u.)
- TCTGATGTCAAGTTGGTGACATGTTGCCAATCAATTCCAGCGGAGTCACCTAGTGCAG — higher, 4580 fluorescence intensity (a.u.)
- TGATTGTAGTTTCTACAGTAGCAAGACAGCACGTGGCAGTCGGAGTCACCTAGTGCAG — higher, 4070 fluorescence intensity (a.u.)
- CGCGCCACGCGTCGCTCTGAGCCGCCGCCAACCACCAAACCGGAGTCACCTAGTGCAG — higher, 23700 fluorescence intensity (a.u.)
- CCCACCCCGGGACCCTAATTCGTCAGCTCTCTACCGAAGTCGGAGTCACCTAGTGCAG — higher, 4030 fluorescence intensity (a.u.)
- CTGACGTTGGCATATAGGTAAGATGCTGATTGGTTGCGAACGGAGTCACCTAGTGCAG — higher, 6270 fluorescence intensity (a.u.)
- GATTGCTGTTTCACTTACAAATGGATCCCATGTGTCTTTTCGGAGTCACCTAGTGCAG — lower, 3920 fluorescence intensity (a.u.)
- CCTCTCCCACGTCCGCGCGCCGCCGGCTCCCTCCGCCGCCCGGAGTCACCTAGTGCAG — higher, 4700 fluorescence intensity (a.u.)
- TCAATTGTTACTTTAGATGGCTTAACTGTTATATTCTTTACGGAGTCACCTAGTGCAG — higher, 27400 fluorescence intensity (a.u.)
- CATCGAGAGGCTCCCGAGCATGGCCGAGATCGCCGAGGAGCGGAGTCACCTAGTGCAG — lower, 3500 fluorescence intensity (a.u.)
- ACTTCGCTAGGGTGTGCGTGACTTTGTCAGTGAGGTCGCCCGGAGTCACCTAGTGCAG — lower, 3730 fluorescence intensity (a.u.)
- CTCCGCCCATTTCTCCTCTCCACCTGCGATCCATCCGCGCCGGAGTCACCTAGTGCAG — lower, 3180 fluorescence intensity (a.u.)
- GGGACCATATATCAATTATGCTGACAAGACAATCCATCTGCGGAGTCACCTAGTGCAG — lower, 3160 fluorescence intensity (a.u.)
- CATGTGCACTGTGATTCTCTCAGTTTTGTATCATCAAGATCGGAGTCACCTAGTGCAG — lower, 3420 fluorescence intensity (a.u.)
- AAACAAGACGTGGCGACTGGCCGACCTCCCTCGTGGACACCGGAGTCACCTAGTGCAG — higher, 5530 fluorescence intensity (a.u.)
- AGGAGAGGTCGATCCACCAGAGCATCGTCCCGACGTGGGACGGAGTCACCTAGTGCAG — lower, 3730 fluorescence intensity (a.u.)
- GAGTCCCACCAGTATCCACGTTGGATCTGTTCCTGTTGTGCGGAGTCACCTAGTGCAG — higher, 6800 fluorescence intensity (a.u.)
- ATGGTGGTGGATCTGTGGTTGTATTGACTTTACCCATCAACGGAGTCACCTAGTGCAG — lower, 3770 fluorescence intensity (a.u.)
- ATAGTCTTCACCAATCTCCTTGGGACACGTTTGTGTCGGTCGGAGTCACCTAGTGCAG — lower, 3890 fluorescence intensity (a.u.)
- ATATGCATGGTTCTATTTTGTTTACATGTAGTATAGGTCACGGAGTCACCTAGTGCAG — lower, 3320 fluorescence intensity (a.u.)
- GGCATGCTTTTATCCAAAAGGCTACAATCAAGAGTTGCTTCGGAGTCACCTAGTGCAG — higher, 15900 fluorescence intensity (a.u.)
- AATACAGGAAAACATGGATCAGATGGCCGTGCGATTACACCGGAGTCACCTAGTGCAG — lower, 3150 fluorescence intensity (a.u.)
- GTAGGAGACGGTGACGTCAACCGGCTTGTAGGGAGCCTTGCGGAGTCACCTAGTGCAG — higher, 6880 fluorescence intensity (a.u.)
- TTGAGATACCACATCTCGGCCAGCTTCGTCATCTTCCCGCCGGAGTCACCTAGTGCAG — lower, 3920 fluorescence intensity (a.u.)
- CGACCAAACAGTCACACGGGCCACCGGACCAGCCGTCACCCGGAGTCACCTAGTGCAG — lower, 3470 fluorescence intensity (a.u.)
- AAGCATATAAAGCATATGGGTTCAGTATGTCACCACAACCCGGAGTCACCTAGTGCAG — lower, 3350 fluorescence intensity (a.u.)
- TGGTGACGACGTGTCGACGCCTTCAAGTCACTGAGTCATGCGGAGTCACCTAGTGCAG — higher, 29000 fluorescence intensity (a.u.)
- CCAACGGCCCACCCTATAGCTAGCGCCACCACCGACACCACGGAGTCACCTAGTGCAG — lower, 3210 fluorescence intensity (a.u.)
- CGATAATTAGAAGTTCTCCCAAATAGGCCCATTGTTTCACCGGAGTCACCTAGTGCAG — lower, 3170 fluorescence intensity (a.u.)
- AATAAGACGAAGAGTCACGTTGTATCACAAGGGAGTATCTCGGAGTCACCTAGTGCAG — lower, 3210 fluorescence intensity (a.u.)
- CCACCGAAGCCGCCGCCACGTCATGCCCCGGCTGCGGTTTCGGAGTCACCTAGTGCAG — higher, 16400 fluorescence intensity (a.u.)
- CGTGTATACCTTATTACCGCCGGGACCAACTGAAAGAAGTCGGAGTCACCTAGTGCAG — higher, 34500 fluorescence intensity (a.u.)
- GCGTCGAGGTTGTCCGCCACCACGTGGCTGAATTGGAACCCGGAGTCACCTAGTGCAG — higher, 9340 fluorescence intensity (a.u.)
